Results from PMC11024185.
Changes are numbered by the printed parent chain. These are yes or no findings as the source states them, for the method shown. In cells and extracts the contact can be indirect. Some binding calls cover weakened binding; strength is not graded here. Sequences can lack the tags named with a protein.

Legend:
[1] = biological target: T1, Dbp10 (wild type, steady state, affinity tagged) (S. cerevisiae) (UniProt Q12389); test: tandem affinity purification (split tags); pre-60S particles from yeast lysate: IgG Sepharose (2xProteinA on Ssf1 or Noc2), 3C protease cleavage, then Strep-Tactin (Dbp10); Ribo-buffer pH 8.0; dbp10^R522V overexpressed, or steady-state DBP10 with 50 µM ADP-BeF3, or SPB4-AID depletion with auxin and 50 µM ADP-BeF3; composition of the particles as told with Supplementary Fig. 1b, c and the cryo-EM models
T1 sequence: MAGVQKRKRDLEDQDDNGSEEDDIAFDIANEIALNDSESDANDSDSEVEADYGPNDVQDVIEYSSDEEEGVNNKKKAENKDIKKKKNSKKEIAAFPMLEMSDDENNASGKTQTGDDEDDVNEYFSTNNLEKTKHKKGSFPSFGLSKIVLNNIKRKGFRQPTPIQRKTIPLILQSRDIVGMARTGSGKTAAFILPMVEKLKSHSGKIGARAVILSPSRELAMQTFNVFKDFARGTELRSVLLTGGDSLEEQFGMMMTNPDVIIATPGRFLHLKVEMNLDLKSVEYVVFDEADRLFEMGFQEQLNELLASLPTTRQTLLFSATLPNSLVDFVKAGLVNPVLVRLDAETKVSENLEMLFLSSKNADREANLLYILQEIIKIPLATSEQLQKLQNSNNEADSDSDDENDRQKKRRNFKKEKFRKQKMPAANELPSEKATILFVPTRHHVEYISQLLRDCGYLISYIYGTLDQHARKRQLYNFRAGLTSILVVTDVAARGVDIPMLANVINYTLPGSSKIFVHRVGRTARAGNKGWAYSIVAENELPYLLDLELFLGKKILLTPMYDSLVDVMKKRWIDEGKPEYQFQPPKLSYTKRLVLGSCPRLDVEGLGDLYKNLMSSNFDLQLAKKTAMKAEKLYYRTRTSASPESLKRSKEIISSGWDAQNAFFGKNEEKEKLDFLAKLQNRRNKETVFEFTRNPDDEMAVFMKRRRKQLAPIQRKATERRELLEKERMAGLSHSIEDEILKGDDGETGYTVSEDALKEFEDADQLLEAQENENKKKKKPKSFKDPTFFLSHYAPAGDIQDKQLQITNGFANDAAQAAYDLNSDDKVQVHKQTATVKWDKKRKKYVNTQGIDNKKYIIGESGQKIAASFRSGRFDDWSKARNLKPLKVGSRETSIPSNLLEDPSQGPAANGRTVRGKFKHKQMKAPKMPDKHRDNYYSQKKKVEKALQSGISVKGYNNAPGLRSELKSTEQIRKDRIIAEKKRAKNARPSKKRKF

[2] = biological target: T2, Dbp10^R522V (slow-hydrolysis mutant, overexpressed, N-terminal 3xStrep-sfGFP-bdNEDD-MYC tag) (S. cerevisiae) (UniProt Q12389); test: as above
T2 sequence: T1 sequence with R522V

B1: Ssf1 (genomic C-terminal 3xFLAG-3C-2xProteinA tag) (protein, UniProt P38789 1-453)
chain: MAKRRQKKRTHAQLTPEQEQGIPKSMVIRVGQTSLANHSLNQLVKDFRQIMQPHTAIKLKERKSNKLKDFVVMCGPLGVTHLFMFTQSEKTGNVSLKIARTPQGPTVTFQVLDYSLGRDIKKFLKRPKSLNNDDVLNPPLLVLNGFSTSKRSGEDDQDVNVEKVIVSMFQNIFPPLNPARTSLNSIKRVFMINKDRETGEISMRHYFIDIREVEISRNLKRLYKAKNNLSKTVPNLHRKEDISSLILDHDLGAYTSESEIEDDAIVRVVDNQDVKAKHSQSLKSQRTPVEKKDNKEREKETEEEDVEMEEPKPSENLQPTPRKKAIKLTELGPRLTLKLVKIEEGICSGKVLHHEFVQKSSEEIKALEKRHAAKMRLKEQRKKEQEENIAKKKAVKDAKKQRKLERRKARAAEGGEGQGKDDAMSDDESSSSDSEHYGSVPEDLDSDLFSEVE
binding [1]: binds | binding [2]: binds

B2: Rrp14 (protein, UniProt P36080 1-434)
chain: MSNSLEERLRANSSAFDGLLALIPAKYYYDEKSQEQWKAKKKTKEQSKNDKLKKLDPEQRDDETSSTLEVMKKKEKDAKPVVLPGEKFKHMKMQKQKEATSKVEGDSDLNVEVNDPMIIAPDEDEEEEEDIKVIFDDEGNEIPLESKKDTTEPDRSVEKKSITEEEKLQRKKNLEALRSKLQAKISDMKSKRKAPGSREAILAQRKRKEELKKRKRLESEQEQDQDEIASDSDMEDIDSDLENNSKKRFKKGKKDSEINADGVMFQNIIFDDGARATSDLQRLRKAGRTKGPAKNDVKSHLKLLEAKKNKMEAKDELEQIKQKEKEKWQKAMLQAEGIKIRDDEKLLRKAIKRKEAQKRKSAIEWSERKRVVEDTISERQKRREENLRIRKDNKGKKRNKQEKMKRKYVGSAVPKKRAGFEGRLKTGKKKGGPK
binding [1]: binds

B3: Rrp15 (protein, UniProt Q06511 1-250)
chain: MGSKHRVDTKDKKRTRKNAEFGREKRNSGNQELSNEPEKDTIMEGDEAEEDEQNSSSDESSKIIDNEQSDAEEDDDEEEEDDDFPRKKKSKNSKHDDGSTGFSAAVNAILSSHLKAYDRKDPIMARNKKVLKQSESEKLEYKAKKALLAEKKKLLGKARKTDIIPIASGEDRSENIRKVLEKETALRKIAQKGAVKLFNAILATQVKTEKEVSENLSEIKNKEEKKELITEVSKEKFLDLVKAAAGSDNE
binding [1]: binds

B4: Noc2 (genomic C-terminal 3xFLAG-3C-2xProteinA tag) (protein, UniProt P39744 1-710)
chain: MGKVSKSTKKFQSKHLKHTLDQRRKEKIQKKRIQGRRGNKTDQEKADAAGTREQQQLKKSAKEEVFKDMSVETFFEKGIEIPKENKKLKKKTTKEQSDEDSSSSEEEEDMGQSMAKLAEKDPEFYKYLEENDKDLLDFAGTNPLDGIDSQDEGEDAERNSNIEEKSEQMELEKEKIELSLKLVRKWKKQLHDSPSLKLLRNIISAFKVAVNLNKEENIEDYKYAITDEKAFHELMFMVLKDVPQAIQKMAPYKIVKGARTLPNGGNVSRVSSIVKSHAGSLLILLNDITNTETAALVLHSVNELMPYLLSYRRILKELIKSIVGVWSTTRELETQIASFAFLINTTKEFKKSMLETTLKTTYSTFIKSCRKTNMRSMPLINFQKNSAAELFGIDEVLGYQVGFEYIRQLAIHLRNTMNATTKKSSKINSAEAYKIVYNWQFCHSLDFWSRVLSFACQPEKENGSESPLRQLIYPLVQVTLGVIRLIPTPQFFPLRFYLIKSLIRLSQNSGVFIPIYPLLSEILTSTAFTKAPKKSPNLAAFDFEHNIKCTQAYLNTKIYQEGLSEQFVDLLGDYFALYCKNIAFPELVTPVIISLRRYIKTSTNVKLNKRLSTVVEKLNQNSTFIQEKRSDVEFGPTNKSEVSRFLNDVAWNKTPLGSYVAVQREVKEEKARLMRESMEEQDKERETEEAKLLNSLESDDDNEDVEMSDA
binding [1]: binds

B5: Noc3 (protein, UniProt Q07896 1-663)
chain: MAKRNRSQFRIQERTAKKRKHEDSLLEGNVFQNAPEDMDENTIYSAKGSSWDEEEQDYEMVPRKNRSDTSNLVEGLPIKVNGKVERKLHKAQEKPKDDDEEDEDSNDSSEDDEGPNEEQEAEAKEDEPDTEEKILQLKEDIADLVTKVMEEPEENTAALGRLCKMVESKNPNTCKFSMLALVPVFKSIIPGYRIRPLTETEKKEKVSKEVSKLRNFEQALVYNYKNYVGRLQSLSKTPSNAAPIQVSLGILATQAAKELISTASHFNFRTDIFTLLLRRICKPRISTDPTSIQIIQTFETLLNEDEEGSISFEILRIFNKILKTRNFNIEESVLNMLLSLDVLHDYDPNTKLKGNVSAPKLKKKDRVHLSKKQRKARKEMQQIEEEMRNAEQAVSAEERERNQSEILKIVFTIYLNILKNNAKTLIGSVLEGLTKFGNMANFDLLGDFLEVMKELISDTEFDNLSSAEVRKALLCIVSAFSLISNTQYMKVNVDLSKFVDGLYALLPYICLDADIELSYRSLRLADPLNNEIIKPSVNVSTKAELLLKALDHVFFRSKSGTKERATAFTKRLYMCISHTPEKTSIAILKFIDKLMNRYPEISGLYSSEDRIGNGHFIMEADNPSRSNPEAATLWDNALLEKHYCPVVTKGLRSLSSRSKECSK
binding [1]: binds
